Experimental data reported in PubChem BioAssay (EPA / NIEHS).
This list was built around the results that the source calls inconclusive (neither active nor inactive); the mix of calls is not that of the screen. For some assays here: Potencies beside an inconclusive call are fits to weak or partial responses and may not hold up. Active and inactive are the calls of the source. The calls were made as follows: active = hit-call score of the fitted dose curve at least 0.9, where 1 is the maximum; inconclusive = response in the unintended direction; inactive = score below 0.9.

Protein sequences, listed by entry. Tags and fused reporters are not part of them. Lines headed by an entry give the natural chain unless they say otherwise; changes in a name come on top.
UniProt P08912, whole entry, looked up: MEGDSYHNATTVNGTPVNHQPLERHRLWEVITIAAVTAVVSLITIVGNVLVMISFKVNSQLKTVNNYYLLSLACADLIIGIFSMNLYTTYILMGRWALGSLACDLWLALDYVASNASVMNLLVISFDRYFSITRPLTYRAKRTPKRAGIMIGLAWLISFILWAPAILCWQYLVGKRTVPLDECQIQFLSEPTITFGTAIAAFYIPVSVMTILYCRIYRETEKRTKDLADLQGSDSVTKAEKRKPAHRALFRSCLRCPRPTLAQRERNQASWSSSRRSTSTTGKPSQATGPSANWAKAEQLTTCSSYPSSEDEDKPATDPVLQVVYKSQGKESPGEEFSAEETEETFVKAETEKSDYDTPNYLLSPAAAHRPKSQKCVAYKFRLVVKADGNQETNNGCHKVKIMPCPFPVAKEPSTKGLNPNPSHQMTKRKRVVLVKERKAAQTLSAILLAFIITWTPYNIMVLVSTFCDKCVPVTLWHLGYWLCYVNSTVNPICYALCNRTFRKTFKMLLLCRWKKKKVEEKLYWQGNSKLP
UniProt P41143, whole entry, looked up: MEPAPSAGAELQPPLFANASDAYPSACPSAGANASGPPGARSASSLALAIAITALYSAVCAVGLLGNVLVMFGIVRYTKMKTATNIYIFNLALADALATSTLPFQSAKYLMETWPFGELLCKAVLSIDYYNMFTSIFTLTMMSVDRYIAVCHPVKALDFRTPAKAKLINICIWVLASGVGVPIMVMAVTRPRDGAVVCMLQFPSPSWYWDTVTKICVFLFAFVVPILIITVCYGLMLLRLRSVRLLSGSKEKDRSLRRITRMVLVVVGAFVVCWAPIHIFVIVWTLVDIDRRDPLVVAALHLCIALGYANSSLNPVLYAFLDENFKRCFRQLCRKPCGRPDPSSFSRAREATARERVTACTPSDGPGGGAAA
UniProt P41146: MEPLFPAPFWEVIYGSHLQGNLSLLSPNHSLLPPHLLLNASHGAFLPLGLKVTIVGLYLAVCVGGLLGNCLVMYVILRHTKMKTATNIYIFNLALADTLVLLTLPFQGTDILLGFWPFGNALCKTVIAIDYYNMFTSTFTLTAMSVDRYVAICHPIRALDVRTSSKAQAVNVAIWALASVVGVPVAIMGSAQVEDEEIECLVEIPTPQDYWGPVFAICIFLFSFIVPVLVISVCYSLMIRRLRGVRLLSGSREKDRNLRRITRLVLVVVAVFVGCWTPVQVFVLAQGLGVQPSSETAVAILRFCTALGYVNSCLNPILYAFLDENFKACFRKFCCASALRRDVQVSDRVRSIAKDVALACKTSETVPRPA
UniProt O08786, whole entry, looked up: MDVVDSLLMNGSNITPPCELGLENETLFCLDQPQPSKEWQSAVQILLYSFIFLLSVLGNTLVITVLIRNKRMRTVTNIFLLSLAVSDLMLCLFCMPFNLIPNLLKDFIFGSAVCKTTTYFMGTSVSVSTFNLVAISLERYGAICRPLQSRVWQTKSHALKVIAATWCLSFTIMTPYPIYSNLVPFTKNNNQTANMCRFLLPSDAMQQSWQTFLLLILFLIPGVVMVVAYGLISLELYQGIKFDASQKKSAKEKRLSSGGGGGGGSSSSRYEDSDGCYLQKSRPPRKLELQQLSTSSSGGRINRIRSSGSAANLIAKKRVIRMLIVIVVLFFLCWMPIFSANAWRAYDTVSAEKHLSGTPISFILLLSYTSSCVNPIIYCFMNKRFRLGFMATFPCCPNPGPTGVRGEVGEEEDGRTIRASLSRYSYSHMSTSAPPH
UniProt P25929, whole entry, looked up: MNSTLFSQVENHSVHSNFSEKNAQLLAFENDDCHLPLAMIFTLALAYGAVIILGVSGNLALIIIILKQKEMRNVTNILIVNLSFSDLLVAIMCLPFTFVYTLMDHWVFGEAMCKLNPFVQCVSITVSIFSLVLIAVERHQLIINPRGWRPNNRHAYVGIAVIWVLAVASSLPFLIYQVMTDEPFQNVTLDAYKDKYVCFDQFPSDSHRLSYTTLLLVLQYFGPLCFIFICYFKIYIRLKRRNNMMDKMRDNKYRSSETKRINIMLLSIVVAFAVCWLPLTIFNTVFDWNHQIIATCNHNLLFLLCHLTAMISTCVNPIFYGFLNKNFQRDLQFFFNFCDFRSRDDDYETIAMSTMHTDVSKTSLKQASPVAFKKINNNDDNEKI
UniProt P47900: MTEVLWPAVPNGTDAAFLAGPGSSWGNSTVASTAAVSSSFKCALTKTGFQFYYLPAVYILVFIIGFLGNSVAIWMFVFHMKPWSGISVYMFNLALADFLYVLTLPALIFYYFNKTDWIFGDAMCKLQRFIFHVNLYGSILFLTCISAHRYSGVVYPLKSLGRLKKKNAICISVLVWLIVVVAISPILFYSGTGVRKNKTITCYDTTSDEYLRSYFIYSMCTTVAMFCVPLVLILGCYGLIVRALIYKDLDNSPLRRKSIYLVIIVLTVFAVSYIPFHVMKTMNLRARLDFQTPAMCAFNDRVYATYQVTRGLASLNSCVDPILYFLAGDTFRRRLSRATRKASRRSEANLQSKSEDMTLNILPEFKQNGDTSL
UniProt P37288, whole entry, looked up: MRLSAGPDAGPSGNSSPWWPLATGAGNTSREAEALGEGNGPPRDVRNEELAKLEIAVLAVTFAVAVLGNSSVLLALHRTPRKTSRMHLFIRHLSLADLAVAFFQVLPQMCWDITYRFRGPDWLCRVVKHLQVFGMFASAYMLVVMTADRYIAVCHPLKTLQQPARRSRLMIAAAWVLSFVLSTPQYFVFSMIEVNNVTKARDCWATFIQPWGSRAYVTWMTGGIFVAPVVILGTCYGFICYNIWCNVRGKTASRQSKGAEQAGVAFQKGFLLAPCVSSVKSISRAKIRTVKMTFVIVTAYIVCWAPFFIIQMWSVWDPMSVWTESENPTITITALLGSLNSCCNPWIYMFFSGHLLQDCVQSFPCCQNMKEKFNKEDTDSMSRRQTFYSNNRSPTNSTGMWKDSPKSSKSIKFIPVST
UniProt O70526, whole entry, looked up: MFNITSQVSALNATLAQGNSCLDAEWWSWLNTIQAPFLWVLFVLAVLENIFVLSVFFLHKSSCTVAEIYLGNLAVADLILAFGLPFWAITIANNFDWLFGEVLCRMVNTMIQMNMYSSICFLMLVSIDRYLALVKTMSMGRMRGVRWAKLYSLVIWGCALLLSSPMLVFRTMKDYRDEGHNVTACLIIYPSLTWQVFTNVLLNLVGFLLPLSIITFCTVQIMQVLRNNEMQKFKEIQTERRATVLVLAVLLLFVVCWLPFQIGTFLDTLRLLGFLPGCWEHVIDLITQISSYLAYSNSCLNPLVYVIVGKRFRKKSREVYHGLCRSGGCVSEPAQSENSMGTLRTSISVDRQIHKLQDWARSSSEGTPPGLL
UniProt P43140: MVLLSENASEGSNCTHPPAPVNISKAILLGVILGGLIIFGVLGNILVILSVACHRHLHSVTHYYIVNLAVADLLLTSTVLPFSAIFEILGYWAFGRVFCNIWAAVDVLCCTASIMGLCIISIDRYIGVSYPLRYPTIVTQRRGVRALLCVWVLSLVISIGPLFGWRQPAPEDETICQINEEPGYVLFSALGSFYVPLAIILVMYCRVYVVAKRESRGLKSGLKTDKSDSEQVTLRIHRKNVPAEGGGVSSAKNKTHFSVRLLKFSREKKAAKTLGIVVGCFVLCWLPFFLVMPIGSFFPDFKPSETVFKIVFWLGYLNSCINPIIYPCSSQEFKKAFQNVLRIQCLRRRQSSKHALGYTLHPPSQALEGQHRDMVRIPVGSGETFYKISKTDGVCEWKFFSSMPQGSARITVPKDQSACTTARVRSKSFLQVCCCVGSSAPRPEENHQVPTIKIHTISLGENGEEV
UniProt P56481: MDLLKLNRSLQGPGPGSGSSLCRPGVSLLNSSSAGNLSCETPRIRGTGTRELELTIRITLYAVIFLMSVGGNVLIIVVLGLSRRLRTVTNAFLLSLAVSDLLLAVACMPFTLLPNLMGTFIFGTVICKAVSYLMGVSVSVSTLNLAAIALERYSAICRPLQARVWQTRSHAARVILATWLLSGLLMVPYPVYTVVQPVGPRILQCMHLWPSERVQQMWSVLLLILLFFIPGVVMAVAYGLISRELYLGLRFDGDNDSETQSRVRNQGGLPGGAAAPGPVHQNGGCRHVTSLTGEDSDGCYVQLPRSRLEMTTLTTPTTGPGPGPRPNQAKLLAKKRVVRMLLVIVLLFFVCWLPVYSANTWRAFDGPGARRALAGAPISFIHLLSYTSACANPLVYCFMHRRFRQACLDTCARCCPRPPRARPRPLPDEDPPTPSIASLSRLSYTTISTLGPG

Tests used:
[1] = target: Muscarinic acetylcholine receptor M5 (Homo sapiens) (UniProt P08912); assay: NVS_GPCR_hM5: NovaScreen (NVS) G Protein-Coupled Receptor Assay for human Muscarinic, M5 Receptor (AID 2283275)
Outline: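 Chemicals passing a primary duplicate screen at 25 uM were run as singleton concentration series, maximum 50 uM. Displacement of a specific radioligand from CHO-extracted receptor was read by filter scintillation after 1 h, relative to DMSO.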

[2] = target: human Opioid Receptor Delta 1 (Opiate D1), OPRD1 (gene 4985) (UniProt P41143); assay: NVS_GPCR_hOpiate_D1: NovaScreen (NVS) G Protein-Coupled Receptor Assay for human Opioid Receptor Delta 1 (Opiate D1) (AID 2283280)
Outline: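 Membrane preparations from CHO cells bearing the human receptor were incubated 1 h with test chemical, and bound radioligand was counted after filtration. Actives from 25 uM duplicate screening were retested in concentration-response.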

[3] = target: human Orphanin, Opioid Related Nociceptin Receptor 1 (ORL1), OPRL1 (gene 4987) (UniProt P41146); assay: NVS_GPCR_hORL1: NovaScreen (NVS) G Protein-Coupled Receptor Assay for human Orphanin, Opioid Related Nociceptin Receptor 1 (ORL1) (AID 2283283)
Outline: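 Cell-free binding using HEK293-derived receptor protein: radioligand displacement measured by filter scintillation 1 hour after dosing. Primary testing at 25 uM in duplicate, followed by singleton concentration series up to 50 uM; DMSO served as negative control.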

[4] = target: mouse Cholecystokinin, CCK1 Receptor (CCKA), Cckar (gene 12425) (UniProt O08786); assay: NVS_GPCR_mCCKAPeripheral: NovaScreen (NVS) G Protein-Coupled Receptor Assay for mouse Cholecystokinin, CCK1 Receptor (CCKA) (AID 2283285)
Outline: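 Chemicals were first screened in duplicate at 25 uM, with those meeting threshold (e.g., 30% inhibition) retested in singleton concentration series to 50 uM maximum. Binding of radioligand to mouse pancreatic membranes was read after 2 h by filtration and scintillation counting.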

[5] = tested on: rabbit Platelet Activating Factor Receptor (PAF), gene 100354046; assay: NVS_GPCR_rabPAF: NovaScreen (NVS) G Protein-Coupled Receptor Assay for rabbit Platelet Activating Factor Receptor (PAF) (AID 2283287)
Outline: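 Rabbit platelet membrane preparation; radioligand displacement read by filter-based scintillation counting 1 h after dosing, loss of signal versus DMSO. Primary screen in duplicate at 25 uM, actives followed up in concentration series.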

[6] = target: human Neuropeptide Receptor Y1 (NPY1), NPY1R (gene 4886) (UniProt P25929); assay: NVS_GPCR_hNPY1: NovaScreen (NVS) G Protein-Coupled Receptor Assay for human Neuropeptide Receptor Y1 (NPY1) (AID 2283276)
Outline: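 Displacement of specific radioligand from NPY1 receptor of SK-N-MC origin, read by filtration and scintillation after 1 h. Compounds first tested at 25 uM in duplicate, then actives in concentration series; signal loss relative to DMSO.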

[7] = target: human Purinergic Receptor P2Y, P2RY1 (gene 5028) (UniProt P47900); assay: NVS_GPCR_hPY2: NovaScreen (NVS) G Protein-Coupled Receptor Assay for human Purinergic Receptor P2Y (AID 2283281)
Outline: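 Filtration scintillation readout of radioligand displacement on U937 extract, measured 1 h post-dosing. Single 25 uM duplicate screen, then singleton concentration series to 50 uM for chemicals passing threshold; DMSO as baseline.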

[8] = target: human Vasopressin 1A Receptor (V1A), AVPR1A (gene 552) (UniProt P37288); assay: NVS_GPCR_hV1A: NovaScreen (NVS) G Protein-Coupled Receptor Assay for human Vasopressin 1A Receptor (V1A) (AID 2283284)
Outline: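 Single-concentration duplicate screen at 25 uM, with concentration-response follow-up (top 50 uM) for actives. The assay measured displacement of a radioligand from human platelet-derived receptor after 1.5 h, detected by filtration and scintillation counting.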

[9] = target: guinea pig Bradykinin Receptor B2 (BK2), BDKRB2 (gene 100135486) (UniProt O70526); assay: NVS_GPCR_gBK2: NovaScreen (NVS) G Protein-Coupled Receptor Assay for guinea pig Bradykinin Receptor B2 (BK2) (AID 2283292)
Outline: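 Guinea pig ileum membrane preparation incubated 1 h with radioligand and test chemical; bound counts measured after filtration. Primary duplicate screening at 25 uM, then singleton concentration series with a 50 uM top dose; DMSO as baseline.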

[10] = tested on: guinea pig Atrionatriuretic Peptide Receptor A (ANPA), gene 100135578; assay: NVS_GPCR_gANPA: NovaScreen (NVS) G Protein-Coupled Receptor Assay for guinea pig Atrionatriuretic Peptide Receptor A (ANPA) (AID 2283291)
Outline: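 Displacement of specific radioligand from guinea pig cerebellum membranes was read by scintillation after 1 h. A duplicate single-point screen at 25 uM was followed by a concentration series up to 50 uM, analysed relative to DMSO.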

[11] = target: rat Adrenergic, Alpha 1, Non-selective Receptor (Adra1), Adra1a (gene 29412) (UniProt P43140); assay: NVS_GPCR_rAdra1_NonSelective: NovaScreen (NVS) G Protein-Coupled Receptor Assay for rat Adrenergic, Alpha 1, Non-selective Receptor (Adra1) (AID 2283289)
Outline: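 Chemicals first screened in duplicate at 25 uM, then actives tested in concentration series up to 50 uM. Binding measured as displacement of radioligand from rat forebrain membrane receptors, 1 h, filtration with scintillation readout; DMSO baseline.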

[12] = target: mouse Cholecystokinin, CCK2 Receptor (CCKB), Cckbr (gene 12426) (UniProt P56481); assay: NVS_GPCR_mCKKBCentral: NovaScreen (NVS) G Protein-Coupled Receptor Assay for mouse Cholecystokinin, CCK2 Receptor (CCKB) (AID 2283293)
Outline: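 Mouse forebrain membrane preparation incubated 2 h with chemical and radioligand; bound radioactivity counted after filtration. Single-concentration duplicate screen at 25 uM, then concentration series to 50 uM max for hits, DMSO as baseline.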

In the case of `CCOC(=O)CCC(=O)OCC`, the AC50 [1] is reported as inconclusive: 25 µM, the AC50 [2] is reported as inconclusive: 41.1 µM and the outcome [3] is reported as “inactive”. The AC50 [4] was inconclusive: 25 µM and the AC50 [5] was inconclusive: 4.05 µM.
With `CCCCCCCCCCC` the AC50 [6] was inconclusive: 25 µM.
For `CC(C)(C)c1ccc(O)c(C(C)(C)C)c1`, the AC50 [2] was inconclusive: 25 µM.
For `CS(=O)(=O)c1ccc([C@@H](C[C@H]2CCC(=O)C2)C(=O)Nc2cnccn2)cc1Cl`, the outcome [7] was “inactive”.
For `NC(=O)N(O)[C@@H]1COc2cc(OCc3ccccc3)ccc21`, the AC50 [8] was inconclusive: 42.7 µM and the AC50 [9] was inconclusive: 1.39 µM.
In the case of `CN(C)CCCN1c2ccccc2Sc2ccc(Cl)cc21`, the AC50 [8] is reported as inconclusive: 44.9 µM.
For `Cn1cnc2c1c(=O)[nH]c(=O)n2C`, the AC50 [5] was inconclusive: 10.5 µM.
For `CC(C)=CCC/C(C)=C\CO`, the AC50 [10] was inconclusive: 25 µM.
`CCCCCCCCCCCC(=O)OC` was tested, and the AC50 [10] was inconclusive: 12.2 µM.
In the case of `C=CCc1cc(S(=O)(=O)c2ccc(O)c(CC=C)c2)ccc1O`, the outcome [3] is reported as “inactive”.
With `CCOC(=O)c1ccc(C2CCC(NC[C@H](O)COc3ccc(O)c(NS(C)(=O)=O)c3)CC2)cc1` (stereo not given in full) the AC50 [4] was inconclusive: 23.4 µM.
`CC(C)(C)c1csc(-c2cc3cc(OCc4ccccc4CC(=O)O)ccc3o2)n1` was tested, and the outcome [4] was “inactive”.
For `CCn1nc(C)c2c1C(=O)NCC(c1ccc(O)cc1)=N2`, the AC50 [5] was inconclusive: 25 µM and the AC50 [11] was inconclusive: 6.06 µM.
With `CCCCc1nc2cccnc2n1Cc1ccc(-c2ccccc2-c2nnn[nH]2)cc1` the AC50 [12] was active: 15.4 µM.
